Measurements published in patent US5510459A, “Glucagon antagonists” (ZymoGenetics, Inc., priority 1992, dated 1996).
At least one peptide structure holds a part that was inferred or is arguable (an end, a ring closure or a residue). Ends that are not written are not given here.

Chains of the proteins cited; added tags and fusions are not shown. Residues count along the entry.
UniProt P30082, 27-485: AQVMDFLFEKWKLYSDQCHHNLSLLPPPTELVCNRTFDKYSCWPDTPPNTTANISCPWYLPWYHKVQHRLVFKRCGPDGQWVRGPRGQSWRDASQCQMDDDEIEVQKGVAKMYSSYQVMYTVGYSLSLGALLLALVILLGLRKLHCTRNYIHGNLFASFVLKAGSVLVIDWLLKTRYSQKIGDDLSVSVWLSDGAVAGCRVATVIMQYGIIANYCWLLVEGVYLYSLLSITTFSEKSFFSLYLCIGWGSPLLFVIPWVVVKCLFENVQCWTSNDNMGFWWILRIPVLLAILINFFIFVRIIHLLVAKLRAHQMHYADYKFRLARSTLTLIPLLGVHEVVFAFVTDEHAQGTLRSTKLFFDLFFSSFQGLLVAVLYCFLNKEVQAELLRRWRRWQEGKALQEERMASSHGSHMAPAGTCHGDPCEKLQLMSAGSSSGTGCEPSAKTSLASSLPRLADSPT

Tests used:
Assay type in all cases: biochemical
[1] = biological target: T1, glucagon receptor (rat liver membrane adenylate cyclase) (Rattus norvegicus, UniProt P30082); experiment: Glucagon antagonist screening assay: adenylate cyclase reaction and cAMP assay with yeast culture broths; details: for antagonist activity: cAMP response of rat liver membranes to three concentrations of glucagon in the presence of culture broth: FIG. 4
T1 construct: A. Preparation of Rat Liver Membranes; from tissue; host or cells: rat liver (Sprague-Dawley) plasma membranes

[2] = biological target: T2, glucagon receptor (liver plasma membrane adenylate cyclase) (Rattus norvegicus, UniProt P30082); experiment: Adenylate cyclase assay with synthetic peptides (Example 7C); details: synthetic peptide; liver plasma membranes; 30° C. for 15 minutes
T2 construct: Liver plasma membranes for use in adenylatecyclase assays; from tissue; host or cells: rat liver plasma membranes

[3] = biological target: T1, glucagon receptor (rat liver membrane adenylate cyclase); experiment: Adenylate cyclase activity assay with synthetic peptide glucagon analogs (Example 6); details: synthetic peptides; in the presence of 20 nm glucagon

Compound	cAMP production / adenylate cyclase stimulation with culture broth relative to control strain ([1]; screening and rescreening in duplicate in the presence of glucagon)	inhibition coefficient [2]	antagonist activity: cAMP response of rat liver membranes to three concentrations of glucagon in the presence of culture broth [1]	inhibition coefficient (I/A50): ratio of inhibitor to agonist concentration wherein the response is reduced to one-half [3]
CSCC[C@H](NC(=O)[C@H](CC(C)C)NC(=O)[C@H](Cc1c[nH]c2ccccc12)NC(=O)[C@H](CCC(N)=O)NC(=O)[C@@H](NC(=O)[C@H](Cc1ccccc1)NC(=O)[C@H](CC(=O)O)NC(=O)[C@H](CCC(N)=O)NC(=O)[C@H](C)NC(=O)[C@H](CCCNC(=N)N)NC(=O)[C@H](CCCNC(=N)N)NC(=O)[C@H](CO)NC(=O)[C@H](CC(=O)O)NC(=O)[C@H](CC(C)C)NC(=O)[C@H](Cc1ccc(O)cc1)NC(=O)[C@H](CCCCN)NC(=O)[C@H](CO)NC(=O)[C@H](Cc1ccc(O)cc1)NC(=O)[C@H](CC(=O)O)NC(=O)[C@H](CO)NC(=O)[C@@H](NC(=O)[C@H](Cc1ccccc1)NC(=O)[C@@H](NC(=O)CNC(=O)[C@H](CCC(N)=O)NC(=O)[C@@H](N)CO)[C@@H](C)O)[C@@H](C)O)C(C)C)C(=O)N[C@@H](CC(N)=O)C(=O)N[C@H](C(=O)O)[C@@H](C)O [des-His^1 -glucagon, reference compound]	weak antagonist	27		
AQGTFTSDYAKYLDSRRAQEFVQWLMNT-NH2 [des-His^1 -(Ala^2,11 -Glu^21)glucagon amide]		8.0±2.1		
SQGTFTSDYAKYLDSRRAQDFVQWLMNT [J15, des-His^1 - Ala^11 !glucagon]			better antagonists relative toboth des-His^1 -glucagon and des-His^1 - Glu^9 !glucagon	18
SQGTFTSDYSKYLDSRRAQEFVQWLMNT [H33, des-His^1 - Glu^21 !glucagon]			better antagonists relative toboth des-His^1 -glucagon and des-His^1 - Glu^9 !glucagon	22
